US20240042019
For part of these data: Weaker means in comparison with the reference protein, sequence or condition of that experiment. For part of these data: Protein sequences can lack the tags named with them.

Protein sequences, listed by entry. Tags and fused reporters are not part of them. Residues count along the entry.
UniProt O00584, 25-256: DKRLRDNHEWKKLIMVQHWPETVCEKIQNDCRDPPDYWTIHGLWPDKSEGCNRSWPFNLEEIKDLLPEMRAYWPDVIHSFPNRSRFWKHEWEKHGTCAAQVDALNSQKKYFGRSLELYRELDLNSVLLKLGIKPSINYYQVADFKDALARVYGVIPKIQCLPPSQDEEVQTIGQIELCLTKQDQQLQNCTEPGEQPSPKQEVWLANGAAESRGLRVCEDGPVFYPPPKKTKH
UniProt Q9NYK1, 27-1049: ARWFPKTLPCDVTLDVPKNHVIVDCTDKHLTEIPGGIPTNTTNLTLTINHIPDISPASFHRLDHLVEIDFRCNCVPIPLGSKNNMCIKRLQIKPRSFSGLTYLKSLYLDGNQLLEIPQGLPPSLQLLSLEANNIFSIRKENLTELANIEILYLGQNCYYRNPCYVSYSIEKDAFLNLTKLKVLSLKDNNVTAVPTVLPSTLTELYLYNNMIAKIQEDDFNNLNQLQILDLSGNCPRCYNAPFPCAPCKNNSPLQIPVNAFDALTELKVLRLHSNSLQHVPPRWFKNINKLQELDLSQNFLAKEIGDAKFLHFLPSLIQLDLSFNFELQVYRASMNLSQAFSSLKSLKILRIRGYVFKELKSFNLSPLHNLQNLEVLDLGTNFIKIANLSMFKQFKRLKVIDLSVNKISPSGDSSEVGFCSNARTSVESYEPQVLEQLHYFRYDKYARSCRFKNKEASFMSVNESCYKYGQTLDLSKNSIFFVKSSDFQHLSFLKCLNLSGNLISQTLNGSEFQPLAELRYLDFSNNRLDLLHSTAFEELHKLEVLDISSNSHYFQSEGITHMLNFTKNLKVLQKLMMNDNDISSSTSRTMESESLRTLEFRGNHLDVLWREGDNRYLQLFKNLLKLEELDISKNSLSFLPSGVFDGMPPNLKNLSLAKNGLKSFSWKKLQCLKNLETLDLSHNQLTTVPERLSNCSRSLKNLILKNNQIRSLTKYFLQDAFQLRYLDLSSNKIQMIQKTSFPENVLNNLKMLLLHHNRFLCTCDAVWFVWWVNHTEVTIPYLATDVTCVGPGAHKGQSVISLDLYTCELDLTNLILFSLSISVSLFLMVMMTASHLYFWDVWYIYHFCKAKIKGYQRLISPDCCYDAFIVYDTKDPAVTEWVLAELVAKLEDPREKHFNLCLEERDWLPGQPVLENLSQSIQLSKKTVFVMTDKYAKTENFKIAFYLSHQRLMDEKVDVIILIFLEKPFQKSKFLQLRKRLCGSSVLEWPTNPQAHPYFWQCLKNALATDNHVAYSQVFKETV

How the values were obtained:
RNase T2 = RNase T2 (UniProt O00584); experiment: enzyme reaction in vitro; conditions: 2'-F U10, 2'-OMe U12; PS except PO 3' of each modified U; slower than ORN7013; purified recombinant protein; protein details: Origene recombinant; variant of ORN7013
TLR8 (Homo sapiens) = target: T1, TLR8 (Homo sapiens) (UniProt Q9NR97); experiment: activity in cells; conditions: 2'-F U10, 2'-OMe U12; PS except PO 3' of each modified U; TNF-a greatly reduced vs ORN7013, p-L-arginine; protein in cells; protein details: endogenous in human PBMC (monocytes); variant of ORN7013
T1 sequence (looked up, limits assumed): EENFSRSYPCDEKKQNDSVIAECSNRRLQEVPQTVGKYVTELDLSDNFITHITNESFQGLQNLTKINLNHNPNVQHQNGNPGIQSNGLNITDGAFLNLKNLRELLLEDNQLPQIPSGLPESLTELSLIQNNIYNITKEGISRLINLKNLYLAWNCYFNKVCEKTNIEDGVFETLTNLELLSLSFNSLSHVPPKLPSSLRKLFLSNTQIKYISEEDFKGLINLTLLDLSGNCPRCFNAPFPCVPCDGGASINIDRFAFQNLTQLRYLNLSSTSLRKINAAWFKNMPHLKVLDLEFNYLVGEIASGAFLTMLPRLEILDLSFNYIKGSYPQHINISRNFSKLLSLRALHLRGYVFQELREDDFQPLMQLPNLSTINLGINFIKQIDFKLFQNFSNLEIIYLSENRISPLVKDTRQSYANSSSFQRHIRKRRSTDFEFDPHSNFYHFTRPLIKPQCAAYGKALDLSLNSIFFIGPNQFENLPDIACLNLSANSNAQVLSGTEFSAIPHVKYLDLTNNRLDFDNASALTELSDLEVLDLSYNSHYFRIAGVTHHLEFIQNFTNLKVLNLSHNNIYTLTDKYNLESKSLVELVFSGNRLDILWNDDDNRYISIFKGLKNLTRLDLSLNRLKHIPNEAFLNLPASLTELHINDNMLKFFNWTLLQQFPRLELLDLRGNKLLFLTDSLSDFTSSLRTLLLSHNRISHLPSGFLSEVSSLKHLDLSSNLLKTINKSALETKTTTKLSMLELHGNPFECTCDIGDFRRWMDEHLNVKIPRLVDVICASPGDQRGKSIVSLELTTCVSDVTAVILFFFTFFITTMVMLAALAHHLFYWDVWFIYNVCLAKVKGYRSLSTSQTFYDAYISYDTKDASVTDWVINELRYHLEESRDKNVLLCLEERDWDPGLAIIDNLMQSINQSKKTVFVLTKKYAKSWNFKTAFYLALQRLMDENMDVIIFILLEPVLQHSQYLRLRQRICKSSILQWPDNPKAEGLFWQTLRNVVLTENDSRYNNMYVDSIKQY

TLR7 (Homo sapiens) = TLR7 (Homo sapiens) (UniProt Q9NYK1); experiment: activity in cells; conditions: 2'-F U10, 2'-OMe U12; PS except PO 3' of each modified U; IFN-a maintained or lower vs ORN7013, p-L-arginine; protein in cells; protein details: endogenous in human PBMC (pDC); variant of ORN7013

Sequence: CCGAGCCGCUUUUCCC [ORN7017]
- activity on this sequence (RNase T2): less active
- functional effect (TLR8 (Homo sapiens)): less active
- functional effect (TLR7 (Homo sapiens)): active
